From patent publication US10695562B2, “Interventional drug delivery system and associated methods” (The University of North Carolina at Chapel Hill, priority 2009, dated 2020)

Assay: Iontophoretic delivery of doxorubicin into agarose phantoms
Settings: 5 minutes
Text: A cylindrical tube of 2% (w/v) agarose gel in deionized (D.I.) water was fabricated as a phantom with an outer diameter (o.d.)=2.5 cm and length ˜3-4 cm. […]. Electrodes were fabricated out of platinum foil (width ˜0.25 cm, length ˜3 cm, thickness ˜0.05 cm). A solution of 0.25% Doxorubicin in 4.875% DMSO and 94.875% DI water was used to model the delivery of a small molecule drug. […] was filled inside the cored reservoir in the agarose phantom and the source electrode (anode, in this case) was inserted into […] reservoir. The other end of the anode was hooked to a DC power source with an alligator clip. The agarose phantom was immersed in a beaker containing DI water. The cathode, a second piece of platinum foil, was placed in the PBS beside the agarose phantom and hooked up to the DC power source. In the negative control, passive diffusion of […] was allowed without any passage of current for 5 minutes. In the experimental condition, a constant current of 5 mA (voltage ˜9.5V) was driven through the electrodes for the same duration (5 minutes). […] The radial diffusion of […] from the edge of the cored reservoir was quantified. […]

COc1cccc2c1C(=O)c1c(O)c3c(c(O)c1C2=O)C[C@@](O)(C(=O)CO)C[C@@H]3O[C@H]1C[C@H](N)[C@H](O)[C@H](C)O1 [Doxorubicin]
radial diffusion of the dye from the edge of the cored reservoir (constant current 5 mA (~9.5V), 0.25% Doxorubicin): spread radially to the edge of the agarose phantom | radial diffusion of the dye from the edge of the cored reservoir (negative control 0 mA, passive diffusion): localized to the inner wall of the reservoir
